# Reference: the supplement of paper PMC7024190
# The list shows a part of the results. Repeats in this data set agree poorly, so a single value says little.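 The cells were human embryonic kidney cells carrying a Renilla luciferase gene, driven by the HSV-TK promoter, on a plasmid put in briefly by transfection. This is the first-round screen of about ten thousand compounds, looking for ones that raise reporter output.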
# Tested on: HEK 293FT
# Experiment: log relative Renilla luciferase luminescence (reporter expression vs reference, reference not stated) (log (base not stated)); higher = higher recombinant reporter expression
# Conditions: 10 µM; time after transfection 48 h
# Method: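 HEK 293FT cells transiently transfected with pRL-TK (Renilla luciferase) were treated with compounds at 10 uM and luminescence was read about 42 h later. Values are log relative Renilla luminescence (log base and reference not stated). Single-pass screen; 2080 natural products library.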
row,Structure (SMILES),log
1,CC(=C/C(=O)O)/C=C/[C@]1(O)[C@@]2(C)CO[C@]1(C)C[C@@H](O)C2 [Dihydrophaseic acid],-0.109
2,COc1ccc2ccc(=O)oc2c1C(OC(C)=O)C(=O)C(C)C (stereo unspecified) [Hainanmurpanin],-0.157
3,"CC1=CC(C)(C)N=C(C)C1=O [2,4,6,6-Tetramethyl-3(6H)-pyridinone]",-0.0315
4,COc1c(-c2ccc(OC(C)=O)c(OC(C)=O)c2)oc2cc(OC(C)=O)cc(OC(C)=O)c2c1=O [3-O-Methylquercetin tetraacetate],-0.14
5,"COc1ccc(C2Oc3cc(OC)cc(OC)c3C(=O)C2O)cc1 (stereo unspecified) [3-Hydroxy-4',5,7-trimethoxyflavanone]",-0.405
6,CC1(C)CC[C@]2(C)CC[C@]3(C)C(=CC[C@@H]4[C@@]5(C)CC[C@H](O)C(C)(C)[C@@H]5CC[C@]43C)[C@@H]2C1 [beta-Amyrin],-0.163
7,C=C(C)C(O)C(OCC)c1c(OC)ccc2ccc(=O)oc12 (stereo unspecified) [Murraxocin],-0.177
8,C[C@@H](C[C@@H](O)[C@@H]1OC1(C)C)[C@@H]1CC[C@]2(C)C3=CC[C@H]4C(C)(C)[C@@H](O)CC[C@]4(C)[C@H]3CC[C@@]12C [Dihydroniloticin],-0.163
9,C=C1C(=O)OC2C=C(C)CCC=C(C)CC(OC(C)=O)C12 (stereo unspecified) [Epitulipinolide],0.0607
10,CC(C)(O)[C@@H]1CC[C@@](C)([C@H]2CC[C@]3(C)[C@@H]2CC[C@@H]2[C@@]4(C)CCC(=O)C(C)(C)[C@@H]4CC[C@]23C)O1 [Cabraleone],-0.028
11,COC(=O)C1=CO[C@H](C)[C@H]2CN3CCc4c([nH]c5ccccc45)[C@@H]3C[C@H]12 [Mayumbine],0.168
12,C[C@H]1[C@H](C)CC[C@]2(C(=O)O)CC[C@]3(C(=O)O)C(=CC[C@@H]4[C@@]5(C)CC[C@H](O[C@@H]6O[C@H](CO)[C@@H](O)[C@H](O)[C@H]6O)C(C)(C)[C@@H]5CC[C@]43C)[C@H]12 [Quinovic acid 3-O-beta-D-glucoside],-0.232
13,CC#Cc1ccc(C#CC#CC(O)CO)s1 (stereo unspecified) [Echinoynethiophene A],0.157
14,CC(C)C[C@H](c1c(O)c(C=O)c(O)c(C=O)c1O)[C@@]1(C)CC[C@@H]2[C@@H]1[C@H]1[C@@H](CC[C@@]2(C)O)C1(C)C [Macrocarpal B],-0.22
15,C/C(=C/CC[C@@H](C)[C@H]1CC[C@@]2(C)C3=CC[C@H]4C(C)(C)C(=O)CC[C@]4(C)C3=CC[C@]12C)C(=O)O [Ganoderic acid S],0.0997
16,C[C@@H]1O[C@@H](O[C@@H]2[C@@H](O)[C@H](OCCc3ccc(O)c(O)c3)O[C@H](CO)[C@H]2OC(=O)/C=C/c2ccc(O)c(O)c2)[C@H](O)[C@H](O)[C@H]1O [Acteoside],-0.203
17,"CC[C@H](CC[C@@H](C)[C@H]1CC[C@H]2[C@@H]3C[C@@H](O)[C@@]4(O)C[C@@H](O)CC[C@]4(C)[C@H]3CC[C@]12C)C(C)C [Stigmastane-3,5,6-triol]",-0.424
18,C[N+](C)(C)C(Cc1ccccc1)C(=O)[O-] (stereo unspecified) [Phenylalanine betaine],0.146
19,"CC(C)(O)CC[C@H]1OC(C)(C)O[C@]1(C)[C@H]1CC[C@@]2(O)C3=CC(=O)[C@@H]4C[C@H]5OC(C)(C)O[C@H]5C[C@]4(C)[C@H]3CC[C@]12C [Ecdysterone 2,3:20,22-diacetonide]",0.0425
20,CC1=C2C[C@@H](C(C)(C)O)CC[C@@]2(C)CCC1 [epi-Eudesmol],0.194
21,CC[C@H](CC[C@@H](C)[C@H]1CC[C@H]2[C@@H]3CCC4=CC(=O)CC[C@]4(C)[C@H]3CC[C@]12C)C(C)C [Sitostenone],-0.228
22,COc1cc(O)c2c(=O)c(OC)c(-c3ccc(O)c(OC)c3)oc2c1 [Pachypodol],-0.0942
23,COc1cc(OC)c2ccc(=O)oc2c1[C@H]1C=C(C)CC(C)(C)[C@@H]1[C@@H](O)c1c(OC)cc(OC)c2ccc(=O)oc12 [Toddalosin],-0.142
24,"COc1c(O)cc(O)c2c1OC(c1ccccc1O)CC2=O (stereo unspecified) [2',5,7-Trihydroxy-8-methoxyflavanone]",-0.499
25,COC(=O)C1=CO[C@@H](C)[C@@H]2CN3CCc4c([nH]c5ccccc45)[C@@H]3C[C@H]12 [Tetrahydroalstonine],0.0719
26,C=C1C(=O)O[C@H]2C[C@@H](C)[C@@H]3CC[C@H](O)[C@@]3(C)[C@@H](O)[C@H]12 [Carabrolactone B],0.108

# Some values from the entries so far:
# Value of COc1ccc(C2Oc3cc(OC)cc(OC)c3C(=O)C2O)cc1 (stereo unspecified) [3-Hydroxy-4',5,7-trimethoxyflavanone] under log: -0.405
# Value of COc1cc(O)c2c(=O)c(OC)c(-c3ccc(O)c(OC)c3)oc2c1 [Pachypodol] under log: -0.0942
